Experimental data: PubChem BioAssay AID743456 (Peter MacCallum Cancer Centre, 2014)
Screen: 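Identify miRNAs tied to vorinostat resistance or sensitivity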 (primary screen). System: human HCT116-VR colon cancer cells, a vorinostat-resistant HCT116 line. Reagents: miRNA mimic. Duration: about 3 days from transfection to readout; drug present for the last 24 h. Conditions: vorinostat at 2.5 µM final for 24 h. Read-out: 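Per-well live-cell protease fluorescence and caspase luminescence under 2.5 µM vorinostat for 24 h, scored as robust z-scores and against mock transfection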. Reading the numbers: viability robust z-score and viability vs mock transfection: higher = more viable cells; caspase robust z-score: higher = more caspase activity, more apoptosis. Call rule: 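Active when viability drops or caspase activity climbs beyond robust z thresholds, with wells of poor cell health excluded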.
In all, the deposit lists 878 reagents; this is a random part of them. 27 of them (3.1%) count as active. 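27 mimics are marked active, unlike an earlier stated count of 24; the viability threshold is described inconsistently.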 A number with no mark means an inactive call. Not stated in the record: the amount of reagent.

| miRNA | viability robust z-score | caspase robust z-score | viability hit class | caspase hit class | viability vs mock transfection |
| --- | --- | --- | --- | --- | --- |
| hsa-miR-1263 | -0.15 | 2.84 | no change | no change | 0.72 |
| hsa-miR-920 | 1.36 | -0.3 | no change | no change | 0.99 |
| hsa-miR-222 | 0.57 | 2.5 | no change | no change | 0.88 |
| hsa-miR-125b-2* | -1.36 | -0.18 | no change | no change | 0.5 |
| hsa-miR-513c | 0.92 | 0.62 | no change | no change | 0.91 |
| hsa-miR-519e | -0.17 | 2.97 | no change | no change | 0.76 |
| hsa-miR-1251 | 0.78 | 1.7 | no change | no change | 0.88 |
| hsa-miR-1913 | 0.78 | 0.48 | no change | no change | 0.92 |
| hsa-miR-1183 | 0.24 | -0.52 | no change | no change | 0.83 |
| hsa-miR-502-5p | 0.8 | -0.65 | no change | no change | 0.92 |
| hsa-miR-379 | -0.48 | -0.46 | no change | no change | 0.66 |
| hsa-miR-1274b | 0.62 | -0.22 | no change | no change | 0.86 |
| hsa-miR-1979 | -0.5 | -0.55 | no change | no change | 0.72 |
| hsa-miR-628-5p | -0.34 | 1.23 | no change | no change | 0.74 |
| hsa-miR-887 | -0.46 | 1.88 | no change | no change | 0.71 |
| hsa-miR-516a-5p | 0.19 | -0.61 | no change | no change | 0.83 |
| hsa-miR-921 | -0.08 | 0.2 | no change | no change | 0.78 |
| hsa-miR-1178 | -1.03 | 1.27 | no change | no change | 0.56 |
| hsa-let-7i | 0.12 | 0.94 | no change | no change | 0.82 |
| hsa-miR-324-5p | -1.44 | 3.04 | no change | no change | 0.57 |
| hsa-miR-204 | 0.16 | -0.75 | no change | no change | 0.82 |
| hsa-miR-18b* | 0.45 | 0.03 | no change | no change | 0.83 |
| hsa-miR-367* | 0.48 | -0.54 | no change | no change | 0.84 |
| hsa-miR-34a* | -1.34 | -0.12 | no change | no change | 0.59 |
| hsa-miR-15a | -2.48 | 2.31 | no change | no change | 0.38 |
| hsa-miR-561 | 1 | -0.48 | no change | no change | 0.96 |
| hsa-miR-548p | 0.93 | -0.53 | no change | no change | 0.94 |
| hsa-miR-183* | -0.5 | 0.5 | no change | no change | 0.72 |
| hsa-miR-99b | 0.82 | 0.68 | no change | no change | 0.9 |
| hsa-miR-616* | 0.7 | -0.64 | no change | no change | 0.91 |
| hsa-miR-2110 | -0.71 | 1.25 | no change | no change | 0.62 |
| hsa-miR-1912 | -0.52 | -0.35 | no change | no change | 0.72 |
| hsa-miR-33b | -0.16 | -0.48 | no change | no change | 0.76 |
| hsa-miR-526b* | 1.13 | 0.15 | no change | no change | 0.94 |
| hsa-miR-148b* | -2.27 | 2.77 | no change | no change | 0.44 |
| hsa-miR-720 | 1.96 | -0.24 | no change | no change | 1.09 |
| hsa-miR-24 | 0.26 | -0.5 | no change | no change | 0.84 |
| hsa-miR-328 | 0.29 | 1.53 | no change | no change | 0.83 |
| hsa-miR-26a-1* | 1.34 | -0.68 | no change | no change | 0.98 |
| hsa-miR-196a* | 0.82 | 2.4 | no change | no change | 0.9 |
| hsa-miR-1289 | -1.03 | -0.07 | no change | no change | 0.56 |
| hsa-miR-449b | -2.59 | 3.35 | no change | no change | 0.4 |
| hsa-miR-638 | 1.22 | -0.42 | no change | no change | 1 |
| hsa-miR-127-3p | 0.41 | 0.18 | no change | no change | 0.82 |
| hsa-miR-624 | -1.48 | 1.09 | no change | no change | 0.54 |
| hsa-miR-128 | 0.26 | -0.09 | no change | no change | 0.83 |
| hsa-miR-367 | 1.1 | -0.15 | no change | no change | 0.98 |
| hsa-miR-613 | -0.86 | 1.08 | no change | no change | 0.65 |
| hsa-miR-663b | 0.46 | -0.3 | no change | no change | 0.87 |
| hsa-miR-656 | 0.59 | -0.78 | no change | no change | 0.86 |
| hsa-miR-96 | -0.46 | 2.04 | no change | no change | 0.67 |
| hsa-miR-1228 | -0.28 | 2.21 | no change | no change | 0.74 |
| hsa-miR-629 | -0.67 | 2.16 | no change | no change | 0.7 |
| hsa-miR-588 | 0.83 | 0.1 | no change | no change | 0.9 |
| hsa-miR-1282 | 0.81 | -0.56 | no change | no change | 0.92 |
| hsa-miR-1231 | -2.36 (active) | 5.04 | no change | caspase activation | 0.4 |
| hsa-miR-518a-5p | 0.01 | 1.57 | no change | no change | 0.79 |
| hsa-miR-1258 | -0.72 | 0.38 | no change | no change | 0.69 |
| hsa-miR-571 | -0.71 | -0.44 | no change | no change | 0.68 |
| hsa-miR-629* | -1.76 | -1.29 | no change | no change | 0.5 |
| hsa-miR-551a | 0.06 | -0.8 | no change | no change | 0.8 |
| hsa-miR-16-1* | 0.22 | 0.37 | no change | no change | 0.84 |
| hsa-miR-143* | 0.4 | -0.05 | no change | no change | 0.82 |

Records listed so far with an active call:
| miRNA | viability robust z-score | caspase robust z-score | viability hit class | caspase hit class | viability vs mock transfection |
| --- | --- | --- | --- | --- | --- |
| hsa-miR-1231 | -2.36 (active) | 5.04 | no change | caspase activation | 0.4 |
